Our source for the binding signal values is paper PMC7819943, “Rice protein-binding microarrays: a tool to detect cis-acting elements near promoter regions in rice”.

Protein sequences, listed by entry. Tags and fused reporters are not part of them.
UniProt Q0JBA9, entry or part of it: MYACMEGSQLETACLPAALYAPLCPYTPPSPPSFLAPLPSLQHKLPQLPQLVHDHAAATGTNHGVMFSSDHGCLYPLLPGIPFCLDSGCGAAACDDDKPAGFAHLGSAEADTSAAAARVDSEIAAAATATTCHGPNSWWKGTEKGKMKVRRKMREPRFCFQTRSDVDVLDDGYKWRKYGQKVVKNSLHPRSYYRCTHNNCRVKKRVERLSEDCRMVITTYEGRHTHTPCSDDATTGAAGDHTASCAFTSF

The list shows a part of the results.

This assay deals with OsWRKY34 (Oryza sativa, UniProt Q0JBA9 1-250). Description: protein-binding microarray (RPBM); PBS, 2% BSA, 51.3 ng/ul salmon testes DNA, 50 uM zinc acetate, 200 nM TF, 25 C, 1 h; high values mean tight binding. The settings on record: protein: recombinant; tags: N-terminal polyhistidine and DsRed monomer fusion (pET32a); label: CyDye5-dUTP incorporated in the synthesized complementary strand; 3' TTTTT single-stranded linker to array surface; dsDNA, one strand shown. The method in brief:
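Transcription factors were made in E. coli BL21-CodonPlus as N-terminal fusions to a polyhistidine tag and DsRed, then purified on Ni–NTA. After primer extension with Cy5-dUTP and blocking with 2% BSA, a custom Agilent array was exposed for 1 h at 25 °C to 200 nM protein in PBS, 2% BSA, salmon testes DNA and 50 µM zinc acetate. Washed arrays were scanned on an Axon 4000B, and the binding signal is per-feature fluorescence intensity in arbitrary units.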
As for “CATCTTACTTTGGTTTTGCATTACGTTTTTACCCTTGGCTCGGAGTCACCTAGTGCAG”, the binding signal is 11400 fluorescence intensity (a.u.).
With “ACTTGGAAACTGAGGCCTCTGCTAGTGCTTTCATTTTTTTCGGAGTCACCTAGTGCAG”, the binding signal was 8110 fluorescence intensity (a.u.).
As to “ACACCCCTCGCCCGTCGCTGTGCTGTCCATATATACGGAACGGAGTCACCTAGTGCAG”, the binding signal was 9680 fluorescence intensity (a.u.).
The same measure for “CTTTGCTCGTGCTTTGCTTTGCTTGTTGCTCTCCTCGCGTCGGAGTCACCTAGTGCAG”: 8870 fluorescence intensity (a.u.); for “GTTCCTTTCAGAAACTGGCATTCGAGTTTTGAGTTTCTCGCGGAGTCACCTAGTGCAG”: 8720 fluorescence intensity (a.u.).
Turning to “GCTGCTGCTGCTACTTTTCAGCGTTTATCATTCTGTTTGTCGGAGTCACCTAGTGCAG”, the binding signal is 10500 fluorescence intensity (a.u.).
“CGTTTTTGTGCATCACAATATCACATCACTCTTCATGTACCGGAGTCACCTAGTGCAG”: the binding signal was 11000 fluorescence intensity (a.u.).
On to “TCGATCCTCGTCGCCGGCCGCCGCCGCTACCCCATTCCGACGGAGTCACCTAGTGCAG”, for which the binding signal was 9150 fluorescence intensity (a.u.).
As for “CATATTTTGTCATTTTTCCTTGGCAACTGTAACTCATTTACGGAGTCACCTAGTGCAG”, the binding signal is 10400 fluorescence intensity (a.u.).
For the sequence “CCAACACTATACCACCACCAGTATCATTGTACTACTACCCCGGAGTCACCTAGTGCAG”, the binding signal is 8950 fluorescence intensity (a.u.).
The same measure for “CTTTTAAGCCTAATTGCGCCATGATTTGACAATGTGTTGCCGGAGTCACCTAGTGCAG”: 8530 fluorescence intensity (a.u.); for “TTCACGACTTATTTGCATCTCTAACAAACTCCTGCTAGACCGGAGTCACCTAGTGCAG”: 9590 fluorescence intensity (a.u.); for “CCTTTTGGACGTACGTCGATAGTTGGGTAAATATGAAAAACGGAGTCACCTAGTGCAG”: 11400 fluorescence intensity (a.u.).
Take “CCTCACATCTTCTTCTTCATCTCCCTGTCTCTGTCTCTGTCGGAGTCACCTAGTGCAG”: the binding signal is 13500 fluorescence intensity (a.u.).
As for “GTTTTTTTGTTTTTCACTGTAACTTTATTCAACGGAATACCGGAGTCACCTAGTGCAG”, the figure is 8450 fluorescence intensity (a.u.).
As for “TTTCTACTATAGTTCTTAGGTGTTCTTAGACTTACTTCCTCGGAGTCACCTAGTGCAG”, the figure is 9500 fluorescence intensity (a.u.); as for “AATCCCACAGGCAACAGCCCACCATCAAGTTCTGCTTTTCCGGAGTCACCTAGTGCAG”, 15500 fluorescence intensity (a.u.); as for “CTCTTTTAACATTTTTTCTAACTTAATCCATTTTCTTTTCCGGAGTCACCTAGTGCAG”, 8120 fluorescence intensity (a.u.).
As for “CCCTTCGTCGACACGCACCCCTGACCTCATATTTTCGCTTCGGAGTCACCTAGTGCAG”, the figure is 11800 fluorescence intensity (a.u.).
In the case of “CATAAACTTTTAACTTTTCCATCACATCGTTCCAATTTCACGGAGTCACCTAGTGCAG”, the binding signal is 8210 fluorescence intensity (a.u.).
The same measure for “GTAAACTTATTCTTTGGGCGTTGTTATTATTTGGGGCAATCGGAGTCACCTAGTGCAG”: 11400 fluorescence intensity (a.u.).
As to “TTTTGACTCATTTTTGGTCCTTTTATGTATGTCGTTTTCGCGGAGTCACCTAGTGCAG”, the binding signal was 10600 fluorescence intensity (a.u.).
Take “GGCGGCGGCGGCGGCGGAGGTTGGGAAGGAGAGGGAGGGGCGGAGTCACCTAGTGCAG”: the binding signal was 11800 fluorescence intensity (a.u.).
“ATGTATCTGCTGACCGAGAACCCTTGGGCATGCCGTCAAACGGAGTCACCTAGTGCAG”: the binding signal is 8240 fluorescence intensity (a.u.).
As to “ACAGTGCGGCAATTCAATCATTTATATTTTTTTATTCTCGCGGAGTCACCTAGTGCAG”, the binding signal is 9150 fluorescence intensity (a.u.).
As for “TCTAGTTGTATTCTAAAGCTTTACTTAAGTATTCTCCTTTCGGAGTCACCTAGTGCAG”, the binding signal is 9980 fluorescence intensity (a.u.).
Consider “ATGAGATCATCTCAGCCCACCTGTTGCGTGCTACCAGTTCCGGAGTCACCTAGTGCAG”, for which the binding signal was 8760 fluorescence intensity (a.u.).
As for “CAACCAACCACCCTCAACCTCTCCTCTCTGCTCCGCTCCGCGGAGTCACCTAGTGCAG”, the figure is 8880 fluorescence intensity (a.u.).
With “ACACATATTTATTTTCTCCACTACCACAGAAGGAACTTTTCGGAGTCACCTAGTGCAG”, the binding signal was 9140 fluorescence intensity (a.u.).
The same measure for “TACTAGCTTGCACATACACTCCATTTCTTCTACCCCTATACGGAGTCACCTAGTGCAG”: 9150 fluorescence intensity (a.u.).
Regarding “GTTCCCATATTTATCATTGCATTATTCTGTCTGGCTGTCTCGGAGTCACCTAGTGCAG”, the binding signal was 8410 fluorescence intensity (a.u.).
As to “TCCATACGTATTGACACGTAAACTTCCTCGATAGACATTCCGGAGTCACCTAGTGCAG”, the binding signal is 8170 fluorescence intensity (a.u.).
As for “TCCATCTGGCGAGGAGAGCAGAGCAGGGGAGGGGATCTTGCGGAGTCACCTAGTGCAG”, the figure is 9520 fluorescence intensity (a.u.); as for “TGTTCGTCGCCGCCATCCCACTGACTACCTCGACATAGTTCGGAGTCACCTAGTGCAG”, 14900 fluorescence intensity (a.u.); as for “GAACCTATGGAGTGTGCATCCTATCTCTCCAACCAAACACCGGAGTCACCTAGTGCAG”, 9850 fluorescence intensity (a.u.).
The same measure for “GTTTACCTTACTCTACATGCCTATAACAATCATTCATCATCGGAGTCACCTAGTGCAG”: 8470 fluorescence intensity (a.u.).
“GTGGGGATGGAGGCGTCGTCGGGGTCGTCGTAGAGGTGGGCGGAGTCACCTAGTGCAG”: the binding signal was 9240 fluorescence intensity (a.u.).
As for “TAATTTTCTTCTCATATCTCTCTATCTCTCACTTATACATCGGAGTCACCTAGTGCAG”, the binding signal is 11300 fluorescence intensity (a.u.).
The same measure for “ATCCATCGTCTTTACACGTACTTACCTTGCTAACCGCACTCGGAGTCACCTAGTGCAG”: 8890 fluorescence intensity (a.u.); for “TAGAATTTTGGTTTGTCATCCATATTTGAGTCGGTTTTTACGGAGTCACCTAGTGCAG”: 8060 fluorescence intensity (a.u.); for “CGTGTGCGTGTTGACTTCCACGTCAGCCTTGCCCTTCATCCGGAGTCACCTAGTGCAG”: 11400 fluorescence intensity (a.u.).
For “TTGTCCAACACTACCTGTTGCAATGGGGTTCCTATATTTTCGGAGTCACCTAGTGCAG”, the binding signal is 8380 fluorescence intensity (a.u.).
